Measured values published in patent US20210369812A1, “OSTEOINDUCTIVE PEPTIDES, COMPOSITIONS, IMPLANTS, AND METHODS OF USE” (The Board of Regents of the University of Oklahoma, priority 2018, published 2021).
These are yes or no findings as the source states them, for the method shown. Some entries that bind do so weakly or less than the wild type. For part of these data: Tags and fused reporters may be left off the sequences shown.

Sequences of proteins named here, by UniProt entry; tags and fusion partners are left off. Residues count along the entry.
UniProt P36894, residues 24-152: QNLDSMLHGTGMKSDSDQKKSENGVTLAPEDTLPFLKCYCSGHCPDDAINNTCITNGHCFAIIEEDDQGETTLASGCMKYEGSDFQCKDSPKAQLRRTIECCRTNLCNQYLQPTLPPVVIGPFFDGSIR

Columns and labels:
[1] = biological target: BMPR1A-Fc (G&P Biosciences) (UniProt P36894); experiment: summary of the examples (biopanning, phage ELISA)
[2] = biological target: T1, BMPR2-Fc (G&P Biosciences) (UniProt Q13873); experiment: summary of the examples (biopanning, phage ELISA)
T1 sequence (looked up): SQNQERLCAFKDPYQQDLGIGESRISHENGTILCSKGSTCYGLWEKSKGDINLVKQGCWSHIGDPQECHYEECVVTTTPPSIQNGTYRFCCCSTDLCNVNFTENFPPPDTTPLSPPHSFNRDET

[3] = biological target: BMPR1A-Fc (G&P Biosciences) (UniProt P36894); experiment: phage ELISA on coated receptor, anti-phage antibody, A450
[4] = biological target: BMPR1A-Fc (G&P Biosciences) (UniProt P36894); experiment: phage display biopanning on immobilized BMPR1A-Fc, frequency among sequenced plaques
[5] = biological target: T1, BMPR2-Fc (G&P Biosciences); experiment: phage ELISA on coated receptor, anti-phage antibody, A450; also found by biopanning on BMPR2 alone
[6] = biological target: BMPR1A-Fc (G&P Biosciences) (UniProt P36894); experiment: phage ELISA on coated receptor, anti-phage antibody, A450; also found by biopanning on BMPR1A alone
[7] = biological target: T1, BMPR2-Fc (G&P Biosciences); experiment: phage ELISA on coated receptor, anti-phage antibody, A450
[8] = biological target: T1, BMPR2-Fc (G&P Biosciences); experiment: phage display biopanning on immobilized BMPR2-Fc, frequency among sequenced plaques
[9] = biological target: BMPR1A-Fc (G&P Biosciences) (UniProt P36894); experiment: summary of the examples (biopanning)
[10] = biological target: T1, BMPR2-Fc (G&P Biosciences); experiment: summary of the examples (biopanning)

| Binder | binding [1] | binding [2] | binding [9] | binding [10] | other results |
| --- | --- | --- | --- | --- | --- |
| TAKYLPMRPGPL (peptide, not shown: large carriers) [… (SEQ ID NO:1) displayed on the p3 coat protein of M13 phage] | binds | binds | – | – | binding [3]: binds; binding [4]: binds |
| VHVPLHRGAVSA (peptide, not shown: large carriers) [… (SEQ ID NO:2) displayed on the p3 coat protein of M13 phage] | binds | binds | – | – | binding [3]: binds |
| SGTQDSMVGWNK (peptide, not shown: large carriers) [… (SEQ ID NO:3) displayed on the p3 coat protein of M13 phage] | binds | binds | – | – | binding [5]: binds; binding [6]: binds |
| RDYHPRDHTATW (peptide, not shown: large carriers) [… (SEQ ID NO:4) displayed on the p3 coat protein of M13 phage] | binds | binds | – | – | binding [7]: binds; binding [8]: binds |
| GNNPLHVHHDKR (peptide, not shown: large carriers) [… (SEQ ID NO:5) displayed on the p3 coat protein of M13 phage] | binds | binds | – | – | – |
| TAKSLPMRPGPL (peptide, not shown: large carriers) [… (SEQ ID NO:6) displayed on the p3 coat protein of M13 phage] | – | – | binds | binds | – |
| NAKYPTMRPGPK (peptide, not shown: large carriers) [… (SEQ ID NO:7) displayed on the p3 coat protein of M13 phage] | – | – | binds | binds | – |
| DYHDPSLPTLRK (peptide, not shown: large carriers) [… (SEQ ID NO:8) displayed on the p3 coat protein of M13 phage] | binds | binds | – | – | – |
| NAKYPTMRPGPL (peptide, not shown: large carriers) [… (SEQ ID NO:9) displayed on the p3 coat protein of M13 phage] | binds | binds | – | – | – |
| TSKYLTMRPGPK (peptide, not shown: large carriers) [… (SEQ ID NO:10) displayed on the p3 coat protein of M13 phage] | – | – | binds | binds | – |
